Measured values taken from publication PMC7563477, “N-Terminal Segment of TvCyP2 Cyclophilin from Trichomonas vaginalis Is Involved in Self-Association, Membrane Interaction, and Subcellular Localization” (Biomolecules, 2020).

Target: TvCyP2-∆N (TvCyP2 without the N-terminal segment), recombinant with C-terminal His-tag (Trichomonas vaginalis)
Test: CD thermal unfolding; far-UV CD at 222 nm, 20 to 94 °C at 1 °C/min; TvCyP2-∆N (15 μm) with TvCyP2(3-18) peptide at 1:2 molar ratio; 20 mM NaH2PO4, pH 6.0; both purified

B1: TvCyP2_(3–18) peptide (peptide)
peptide: AFFATRVISAPKVTKK
notes: residues 3-18 of TvCyP2 of Trichomonas vaginalis (N-terminal segment); source: synthetic peptide, HPLC-grade, bought: Yao-Hong Biotechnology
With B1 the binding was “binds”.

No constants are given. Whether binding was seen depends on the method and setting. Binding calls can cover weak binding; strength is not graded here.
